Experimental data taken from patent US10251942B2, “Immunity-inducing agent” (TORAY INDUSTRIES, INC., priority 2009, dated 2019).
Not every detail of the peptide structures is certain; ends, links or a residue may be inferred. Where a SMILES comes first, the peptide text is derived from it.

System: HLA-A0201-positive CD8-positive T cells
Experiment: IFN-γ production (ELISA) by peptide-stimulated T cells cocultured with peptide-pulsed T2 cells
Type: cell-based, human
Conditions: T2 cells pulsed with 10 μg/ml polypeptide, 24 hours coculture; compared to T2 cells not pulsed

SMILES: CC(C)C[C@H](NC(=O)[C@H](CCCCN)NC(=O)[C@H](Cc1ccc(O)cc1)NC(=O)[C@H](C)NC(=O)[C@H](CO)NC(=O)[C@H](CS)NC(=O)[C@H](CS)NC(=O)[C@H](CCC(N)=O)NC(=O)[C@@H](N)CC(C)C)C(=O)O [SEQ ID NO:36] (H-LQCCSAYKL-OH)
- amount of production of IFN-γ: no production of IFN-γ
